# The other results are listed elsewhere or left out.
# B1: Drgal1 (Danio rerio) (protein)
# chain: MAGVLIQNMSFKVGQTLTITGVPKPDSTNFAINIGHSPEDIALHMNPRFDAHGDQCTIVCNSFQSGSWCEEHRDDNFPFIQDKEFQIKITFTNEEFLVTLPDGSEIHFPNRQGSEKYKYMYFEGEVRIQGVEIK
# Tests used:
# Assay in all cases: glycan array binding signal (z-score within array); higher = stronger binding
# Details in all cases: glycan notation: IUPAC condensed, linker removed
# Neu5Ac(a2-3)Gal = molecular target: Neu5Ac(a2-3)Gal
# Outline: (§1)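 Glycan array data came from 3228 arrays in the Consortium for Functional Glycomics database, and only arrays with an available protein sequence were kept. Glycan names were put into IUPAC-condensed notation, and columns mapping to the same glycan were averaged. The binding signal is a within-array Z-score, averaged across arrays of one protein sequence run at different concentrations or buffers and across linkers. A negative Z-score can be read as non-binding.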
# [1] = molecular target: Neu5Ac(a2-3)Gal(b1-3)GalNAc
# Outline: as §1
# [2] = molecular target: Neu5Ac(a2-3)Gal(b1-3)GalNAc(b1-3)Gal(a1-4)Gal(b1-4)Glc
# Outline: as §1
# [3] = molecular target: Neu5Ac(a2-3)Gal(b1-3)GalNAc(b1-4)[Neu5Ac(a2-3)]Gal(b1-4)Glc
# Outline: as §1
# [4] = molecular target: Neu5Ac(a2-3)Gal(b1-3)GalNAc(b1-4)[Neu5Ac(a2-8)Neu5Ac(a2-3)]Gal(b1-4)Glc
# Outline: as §1
# [5] = molecular target: Neu5Ac(a2-3)Gal(b1-3)GalNAc6S
# Outline: as §1
# [6] = molecular target: Neu5Ac(a2-3)Gal(b1-3)GlcNAc
# Outline: as §1
# [7] = molecular target: Neu5Ac(a2-3)Gal(b1-3)GlcNAc(b1-2)Man
# Outline: as §1
# [8] = molecular target: Neu5Ac(a2-3)Gal(b1-3)GlcNAc(b1-2)Man(a1-3)[GlcNAc(b1-4)][Neu5Ac(a2-3)Gal(b1-3)GlcNAc(b1-2)Man(a1-6)]Man(b1-4)GlcNAc(b1-4)GlcNAc
# Outline: as §1
# [9] = molecular target: Neu5Ac(a2-3)Gal(b1-3)GlcNAc(b1-2)Man(a1-3)[Neu5Ac(a2-3)Gal(b1-3)GlcNAc(b1-2)Man(a1-6)]Man(b1-4)GlcNAc(b1-4)GlcNAc
# Outline: as §1
# [10] = molecular target: Neu5Ac(a2-3)Gal(b1-3)GlcNAc(b1-2)[Neu5Ac(a2-3)Gal(b1-3)GlcNAc(b1-4)]Man(a1-6)[Neu5Ac(a2-3)Gal(b1-3)GlcNAc(b1-2)Man(a1-3)]Man(b1-4)GlcNAc(b1-4)GlcNAc
# Outline: as §1
# [11] = molecular target: Neu5Ac(a2-3)Gal(b1-3)GlcNAc(b1-3)Gal(b1-3)GlcNAc
# Outline: as §1
# [12] = molecular target: Neu5Ac(a2-3)Gal(b1-3)GlcNAc(b1-3)Gal(b1-4)GlcNAc
# Outline: as §1
# [13] = molecular target: Neu5Ac(a2-3)Gal(b1-3)GlcNAc(b1-3)GalNAc
# Outline: as §1
# [14] = molecular target: Neu5Ac(a2-3)Gal(b1-3)GlcNAc(b1-4)Gal(b1-4)Glc
# Outline: as §1
# [15] = molecular target: Neu5Ac(a2-3)Gal(b1-3)GlcNAc(b1-6)GalNAc
# Outline: as §1
# [16] = molecular target: Neu5Ac(a2-3)Gal(b1-3)GlcNAc6S
# Outline: as §1
# [17] = molecular target: Neu5Ac(a2-3)Gal(b1-3)[Fuc(a1-4)]GlcNAc
# Outline: as §1
# [18] = molecular target: Neu5Ac(a2-3)Gal(b1-3)[Fuc(a1-4)]GlcNAc(b1-3)Gal(b1-3)[Fuc(a1-4)]GlcNAc
# Outline: as §1
# [19] = molecular target: Neu5Ac(a2-3)Gal(b1-3)[Fuc(a1-4)]GlcNAc(b1-3)Gal(b1-4)[Fuc(a1-3)]GlcNAc
# Outline: as §1
# [20] = molecular target: Neu5Ac(a2-3)Gal(b1-3)[GlcNAc(b1-6)]GalNAc
# Outline: as §1
# [21] = molecular target: Neu5Ac(a2-3)Gal(b1-3)[Neu5Ac(a2-6)]GalNAc
# Outline: as §1
# [22] = molecular target: Neu5Ac(a2-3)Gal(b1-3)[Neu5Ac(a2-6)]GlcNAc(b1-3)[Fuc(a1-3)[Gal(b1-4)]GlcNAc(b1-6)]Gal(b1-4)Glc
# Outline: as §1
# [23] = molecular target: Neu5Ac(a2-3)Gal(b1-3)]Neu5Ac(a2-3)Gal(b1-4)]GlcNAc
# Outline: as §1
# Neu5Ac(a2-3)Gal(b1-4)Glc = molecular target: Neu5Ac(a2-3)Gal(b1-4)Glc
# Outline: as §1
# [24] = molecular target: Neu5Ac(a2-3)Gal(b1-4)GlcNAc
# Outline: as §1
# [25] = molecular target: Neu5Ac(a2-3)Gal(b1-4)GlcNAc(b1-2)Man
# Outline: as §1
# [26] = molecular target: Neu5Ac(a2-3)Gal(b1-4)GlcNAc(b1-2)Man(a1-3)[GlcNAc(b1-4)][Neu5Ac(a2-3)Gal(b1-4)GlcNAc(b1-2)Man(a1-6)]Man(b1-4)GlcNAc(b1-4)GlcNAc
# Outline: as §1
# [27] = molecular target: Neu5Ac(a2-3)Gal(b1-4)GlcNAc(b1-2)Man(a1-3)[Neu5Ac(a2-3)Gal(b1-4)GlcNAc(b1-2)Man(a1-6)]Man(b1-4)GlcNAc(b1-4)GlcNAc
# Outline: as §1
# [28] = molecular target: Neu5Ac(a2-3)Gal(b1-4)GlcNAc(b1-2)Man(a1-3)[Neu5Ac(a2-3)Gal(b1-4)GlcNAc(b1-2)Man(a1-6)]Man(b1-4)GlcNAc(b1-4)[Fuc(a1-6)]GlcNAc
# Outline: as §1
# [29] = molecular target: Neu5Ac(a2-3)Gal(b1-4)GlcNAc(b1-2)Man(a1-3)[Neu5Ac(a2-6)Gal(b1-4)GlcNAc(b1-2)Man(a1-6)]Man(b1-4)GlcNAc(b1-4)GlcNAc
# Outline: as §1
# [30] = molecular target: Neu5Ac(a2-3)Gal(b1-4)GlcNAc(b1-2)[Neu5Ac(a2-3)Gal(b1-4)GlcNAc(b1-4)]Man(a1-3)[GlcNAc(b1-4)][Neu5Ac(a2-3)Gal(b1-4)GlcNAc(b1-2)[Neu5Ac(a2-3)Gal(b1-4)GlcNAc(b1-6)]Man(a1-6)]Man(b1-4)GlcNAc(b1-4)GlcNAc
# Outline: as §1
# [31] = molecular target: Neu5Ac(a2-3)Gal(b1-4)GlcNAc(b1-2)[Neu5Ac(a2-3)Gal(b1-4)GlcNAc(b1-4)]Man(a1-3)[GlcNAc(b1-4)][Neu5Ac(a2-3)Gal(b1-4)GlcNAc(b1-4)Man(a1-6)]Man(b1-4)GlcNAc(b1-4)GlcNAc
# Outline: as §1
# [32] = molecular target: Neu5Ac(a2-3)Gal(b1-4)GlcNAc(b1-2)[Neu5Ac(a2-3)Gal(b1-4)GlcNAc(b1-6)]Man(a1-6)[Neu5Ac(a2-3)Gal(b1-4)GlcNAc(b1-2)Man(a1-3)]Man(b1-4)GlcNAc(b1-4)GlcNAc
# Outline: as §1
# [33] = molecular target: Neu5Ac(a2-3)Gal(b1-4)GlcNAc(b1-2)[Neu5Ac(a2-3)Gal(b1-4)GlcNAc(b1-6)]Man(a1-6)[Neu5Ac(a2-3)Gal(b1-4)GlcNAc(b1-2)Man(a1-3)][GlcNAc(b1-4)]Man(b1-4)GlcNAc(b1-4)GlcNAc
# Outline: as §1
# [34] = molecular target: Neu5Ac(a2-3)Gal(b1-4)GlcNAc(b1-3)Gal
# Outline: as §1
# [35] = molecular target: Neu5Ac(a2-3)Gal(b1-4)GlcNAc(b1-3)Gal(b1-3)GlcNAc
# Outline: as §1
# [36] = molecular target: Neu5Ac(a2-3)Gal(b1-4)GlcNAc(b1-3)Gal(b1-4)GlcNAc
# Outline: as §1
# [37] = molecular target: Neu5Ac(a2-3)Gal(b1-4)GlcNAc(b1-3)Gal(b1-4)GlcNAc(b1-2)Man(a1-3)[Neu5Ac(a2-3)Gal(b1-4)GlcNAc(b1-3)Gal(b1-4)GlcNAc(b1-2)Man(a1-6)]Man(b1-4)GlcNAc(b1-4)GlcNAc
# Outline: as §1
# [38] = molecular target: Neu5Ac(a2-3)Gal(b1-4)GlcNAc(b1-3)Gal(b1-4)GlcNAc(b1-3)Gal(b1-4)GlcNAc
# Outline: as §1
# [39] = molecular target: Neu5Ac(a2-3)Gal(b1-4)GlcNAc(b1-3)Gal(b1-4)GlcNAc(b1-3)Gal(b1-4)GlcNAc(b1-2)Man(a1-3)[Neu5Ac(a2-3)Gal(b1-4)GlcNAc(b1-3)Gal(b1-4)GlcNAc(b1-3)Gal(b1-4)GlcNAc(b1-2)Man(a1-6)]GalNAc
# Outline: as §1
# [40] = molecular target: Neu5Ac(a2-3)Gal(b1-4)GlcNAc(b1-3)Gal(b1-4)GlcNAc(b1-3)GalNAc
# Outline: as §1
# [41] = molecular target: Neu5Ac(a2-3)Gal(b1-4)GlcNAc(b1-3)Gal(b1-4)GlcNAc(b1-3)[Neu5Ac(a2-3)Gal(b1-4)GlcNAc(b1-3)Gal(b1-4)GlcNAc(b1-6)]GalNAc
# Outline: as §1
# [42] = molecular target: Neu5Ac(a2-3)Gal(b1-4)GlcNAc(b1-3)Gal(b1-4)GlcNAc(b1-6)[Gal(b1-3)]GalNAc
# Outline: as §1
# [43] = molecular target: Neu5Ac(a2-3)Gal(b1-4)GlcNAc(b1-3)Gal(b1-4)[Fuc(a1-3)]GlcNAc
# Outline: as §1
binder,measurement,setting,value
B1,glycan array binding signal (z-score),Neu5Ac(a2-3)Gal,-0.162
same,glycan array binding signal (z-score),[1],-0.008
same,glycan array binding signal (z-score),[2],-0.231
same,glycan array binding signal (z-score),[3],0.468
same,glycan array binding signal (z-score),[4],0.043
same,glycan array binding signal (z-score),[5],-0.412
same,glycan array binding signal (z-score),[6],-0.152
same,glycan array binding signal (z-score),[7],-0.651
same,glycan array binding signal (z-score),[8],0.604
same,glycan array binding signal (z-score),[9],-0.163
same,glycan array binding signal (z-score),[10],-0.888
same,glycan array binding signal (z-score),[11],-0.311
same,glycan array binding signal (z-score),[12],-0.431
same,glycan array binding signal (z-score),[13],-0.512
same,glycan array binding signal (z-score),[14],-0.529
same,glycan array binding signal (z-score),[15],0.18
same,glycan array binding signal (z-score),[16],-0.86
same,glycan array binding signal (z-score),[17],-0.317
same,glycan array binding signal (z-score),[18],-0.401
same,glycan array binding signal (z-score),[19],0.029
same,glycan array binding signal (z-score),[20],-0.761
same,glycan array binding signal (z-score),[21],-0.388
same,glycan array binding signal (z-score),[22],-0.383
same,glycan array binding signal (z-score),[23],0.301
same,glycan array binding signal (z-score),Neu5Ac(a2-3)Gal(b1-4)Glc,-0.017
same,glycan array binding signal (z-score),[24],-0.346
same,glycan array binding signal (z-score),[25],-0.253
same,glycan array binding signal (z-score),[26],-0.187
same,glycan array binding signal (z-score),[27],0.02
same,glycan array binding signal (z-score),[28],-0.242
same,glycan array binding signal (z-score),[29],-0.741
same,glycan array binding signal (z-score),[30],-0.575
same,glycan array binding signal (z-score),[31],-0.28
same,glycan array binding signal (z-score),[32],0.197
same,glycan array binding signal (z-score),[33],3.36
same,glycan array binding signal (z-score),[34],-0.372
same,glycan array binding signal (z-score),[35],-0.084
same,glycan array binding signal (z-score),[36],0.603
same,glycan array binding signal (z-score),[37],-0.139
same,glycan array binding signal (z-score),[38],-0.462
same,glycan array binding signal (z-score),[39],0.637
same,glycan array binding signal (z-score),[40],-0.307
same,glycan array binding signal (z-score),[41],-0.016
same,glycan array binding signal (z-score),[42],-0.656
same,glycan array binding signal (z-score),[43],-0.022

# Reformatted with bars between the fields: entries from further up
binder | measurement | setting | value
B1 | glycan array binding signal (z-score) | [26] | -0.187
same | glycan array binding signal (z-score) | [27] | 0.02
same | glycan array binding signal (z-score) | [39] | 0.637
same | glycan array binding signal (z-score) | [41] | -0.016
